# Measurements published in the supplement of paper PMC3741180, “A Novel High Throughput Biochemical Assay to Evaluate the HuR Protein-RNA Complex Formation” (PLoS ONE, 2013).
# By UniProt entry, the sequences of proteins in these tests, tags left out.
# UniProt Q15717, whole entry: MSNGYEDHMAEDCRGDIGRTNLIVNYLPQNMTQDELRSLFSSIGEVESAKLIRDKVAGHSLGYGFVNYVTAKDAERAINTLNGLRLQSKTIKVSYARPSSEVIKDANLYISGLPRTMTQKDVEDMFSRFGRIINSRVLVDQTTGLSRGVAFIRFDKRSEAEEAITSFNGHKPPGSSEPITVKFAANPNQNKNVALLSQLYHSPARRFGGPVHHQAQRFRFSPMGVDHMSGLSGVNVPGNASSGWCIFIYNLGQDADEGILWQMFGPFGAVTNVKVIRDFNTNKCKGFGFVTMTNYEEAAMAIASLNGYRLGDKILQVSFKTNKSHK
# This is one part of the list. Single values are uncertain here, since repeats match poorly.
# Target: HuR (ELAVL1) - TNFalpha ARE RNA complex (UniProt Q15717)
# Experiment: AlphaScreen HuR-RNA complex signal Z-score relative to positive controls (secondary screen) (Z-score (SD units of positive control)); higher = more complex signal
# Conditions: screen stage: secondary re-screen
row,SMILES,AlphaScreen HuR-RNA complex signal Z-score
1,CCC(C)C(=O)OC1CC2(C)C(c3ccoc3)OC(=O)CC23OC2(C)OC34C(OC(=O)C(C)C)C3(O)C(OC(=O)C5(C)OC5C)C5(C)CC3(O)C(C)(C5CC(=O)OC)C14O2 (configuration not stated),-0.0335
2,C[N+]12CCC(CC1)C(OC(=O)C(O)(c1ccccc1)c1ccccc1)C2 (configuration not stated),0.618
3,CC1(C)C(=O)C=C[C@]2(C)[C@H]3CC[C@@]4(C)[C@H](c5ccoc5)OC(=O)[C@H]5O[C@]54[C@]3(C)[C@H](O)C[C@@H]12,-0.11
4,CC(=O)O[C@H]1C[C@@H](OC(C)=O)C(C)(C)C2C[C@@H](OC(C)=O)[C@]3(C)C(CC[C@@]4(C)[C@H](c5ccoc5)C(=O)[C@H]5O[C@]543)[C@]21C (some centres not stated),0.786
5,CCCCCCCCCCCCCCCC[n+]1ccccc1,-0.413
6,NCCc1ccc(O)cc1,0.456
7,Cc1ccc(/N=C/N(C)/C=N/c2ccc(C)cc2C)c(C)c1,0.731
8,CN(C)C(=S)SSC(=S)N(C)C,2.33
9,c1ccc2c(c1)sc1ccccc12,1.24
10,CC(NC(C)(C)C)C(=O)c1cccc(Cl)c1 (configuration not stated),2.13
11,[O-][n+]1ccccc1[S-].[O-][n+]1ccccc1[S-].[Zn+2],0.889
12,O=[N+]([O-])c1cc([As](=O)(O)O)ccc1O,1.85
13,Nc1ccc([As](=O)(O)O)cc1,-0.219
14,CN1CCc2cc3c(cc2[C@H]1[C@@H]1OC(=O)c2c1ccc1c2OCO1)OCO3,0.895
15,CN1C[C@H](CNC(=O)OCc2ccccc2)C[C@@H]2c3cccc4c3c(cn4C)C[C@H]21,0.0392
16,C[C@]12CCC(=O)C=C1C=C[C@@H]1[C@@H]2CC[C@@]2(C)[C@H]1CC[C@@]2(O)CCC(=O)O,1.61
17,O=C(O)CCCO,0.777
18,CN1C[C@H](C(=O)N[C@]2(C)O[C@@]3(O)[C@@H]4CCCN4C(=O)[C@H](Cc4ccccc4)N3C2=O)C[C@@H]2c3cccc4[nH]cc(c34)C[C@H]21,0.646
19,C[C@H]1C(=O)O[C@@H]2CCN3CC=C(COC(=O)[C@](C)(O)[C@]1(C)O)[C@H]23,0.471
20,CC[C@H]1CN2CCc3cc(OC)c(OC)cc3[C@@H]2C[C@@H]1C[C@H]1NCCc2cc(OC)c(OC)cc21,0.466
21,CN1[C@H]2C[C@H](OC(=O)[C@H](CO)c3ccccc3)C[C@@H]1[C@@H](O)C2,0.506
22,C[CH2][Hg][S]c1ccccc1C(=O)[O-].[Na+],1.84
23,CC[C@@H](C)C(=O)O[C@H]1[C@H](O)[C@H]2[C@@H](CN3C[C@@H](C)CC[C@H]3[C@@]2(C)O)[C@@H]2C[C@]34O[C@]5(O)[C@@H](OC(=O)[C@@](C)(O)CC)CC[C@@]3(C)[C@@H]5[C@@H](OC(C)=O)[C@@H](OC(C)=O)[C@H]4[C@@]21O,-0.304
24,CO[C@H]1C[C@H](O[C@H]2CC[C@]3(C=O)[C@H]4CC[C@]5(C)[C@@H](C6=CC(=O)OC6)CC[C@]5(O)[C@@H]4CC[C@]3(O)C2)O[C@H](C)[C@H]1O,0.603
25,Cc1cc(O)ccc1Cl,0.694
26,C[C@@H](CO)NC(=O)[C@@H]1C=C2c3cccc4[nH]cc(c34)C[C@H]2N(C)C1,0.741
27,CC(C)N1C(=O)c2ccccc2NS1(=O)=O,0.545

# Another view of part of the listing above.
row	SMILES	AlphaScreen HuR-RNA complex signal Z-score
3	CC1(C)C(=O)C=C[C@]2(C)[C@H]3CC[C@@]4(C)[C@H](c5ccoc5)OC(=O)[C@H]5O[C@]54[C@]3(C)[C@H](O)C[C@@H]12	-0.11
4	CC(=O)O[C@H]1C[C@@H](OC(C)=O)C(C)(C)C2C[C@@H](OC(C)=O)[C@]3(C)C(CC[C@@]4(C)[C@H](c5ccoc5)C(=O)[C@H]5O[C@]543)[C@]21C (some centres not stated)	0.786
